Experimental data reported in patent US20220251217A1 (University of California, published 2022).
Results are given in words; binding and its absence hold for the method and conditions named.

B1: Nb.C2 (VHH)
VHH: QVQLQESGGGLVQAGGSLRLSCAASGTIFDWYSMGWYRQAPGKERELVAGIDTGANTYYADSVKGRFTISRDNAKNTVYLQMNSLKPEDTAVYYCAAHDDGDPWHVYWGQGTQVTVSS
notes: also called yeast clone Nb.C2
B2: Nb.B5 (VHH)
VHH: QVQLQESGGGLVQAGGSLRLSCAASGTIFPVDYMGWYRQAPGKERELVAGINYGSNTYYADSVKGRFTISRDNAKNTVYLQMNSLKPEDTAVYYCAAWQPEGYAVDFYHPYWGQGTQVTVSS

Target: Fc protein (Fc-domain-only) (human)
Assay: flow cytometry of nanobody-displaying yeast with recombinant Fc protein

Row | Binder | binding
1 | B1 | no binding (tested: 10 nM)
2 | B2 | no binding
